# Assay results from US20230374148A1, “BINDING MOLECULES THAT MULTIMERISE CD45” (UCB BIOPHARMA SRL, priority 2020, published 2023).
# Some of these results come from one statement about several compounds together.
# Columns and labels:
# [1] = tested on: Human PBMC; test: Apoptosis of PBMCs: reduction of PBMC cell subsets; type: cell-based
# Experimental: Human PBMC derived from blood leukocyte platelet-apheresis cones (NHSBT Oxford) were banked as frozen aliquots. Prior to an assay being performed, 2 vials of frozen cells, each containing 5×10^7 cells in 1 ml, were thawed in a 37° C. water bath and then added to 50 ml complete media (RPMI 1640+2 mM GlutaMAX+1% Pen/Strep, all previous supplied by Invitrogen, +10% Fetal Bovine Serum (FBS), Sigma Aldrich). Cells were spun (500 g, 5 min, at RT) and re-suspended in 30 ml complete media to wash and spun again. Cells were resuspended in 10 ml complete media and then counted using a ChemoMetec NucleoCounter NC-3000. 10^5 cells per well in 100 μl were then added to each well of a Corning Costar 96-well, cell culture treated, U-shaped-bottom microplate (cat no. 07-200-95). The plate was rested in a 37° C., 5% CO2 incubator for 2 hrs. PBMCs from two donors, UCB-Cones 801 and 802 were used in this assay.
# Similarly, a 1500 nM stock of 4133-6294 BYbe in complete media was prepared. The microplate was incubated for 1 hr at 37° C., 5% CO2. Following the incubation, Fab-KD-Fab and BYbe reagents were then serially diluted in complete media 1 in 5, nine times to produce to form a 10-point dose curve.
# Following the incubation, the plate was spun at 500 g, 5 min, RT, the buffer was aspirated with a BioTek ELx405 microplate washer, and the cells were re-suspended in FACS buffer (PBS+1% bovine serum albumin (BSA)+0.1% NaN3+2 mM EDTA, Sigma Aldrich) to wash and then re-spun and buffer was aspirated to leave the cells in 20 μl residual media. 20 μl of cell-specific marker antibody cocktail solution was added to the wells and incubated for 1 hr at 4° C. The antibody cocktail is detailed in Table 4 below.
# Cells were analysed live using the Intellicyt iQue Screener PLUS. Live cell counts were extracted as metrics and graphical representations generated using Graphpad Prism version 8.1 (Graphpad). Asymmetric (five parameter) curve fitting was applied to derive maximal % cell reduction and EC50 values.
# [2] = tested on: Human whole blood; test: Apoptosis of lymphocytes in whole blood; type: cell-based; settings: 5 hrs, over both donors (range over both reagents)
# Experimental: Human whole blood (Lithium heparin tubes) was taken from two donors (HTA #051119-01 & #051119-02) at UCB Pharma Slough, UK according to approved ethical sample collection protocol.
# In a Greiner 96-well non-binding microplate, Fab-X and Fab-Y combinations 6294-X/4133-Y and NegCtrl-X/4133-Y, were added to PBS to give a Fab-KD-Fab concentration of 2750 nM. Similarly, a 2750 nM stock of 4133-6294 BYbe in PBS was prepared. The microplate was incubated for 1 hr at 37° C., 5% CO2. Following the incubation, Fab-KD-Fab and BYbe reagents were then serially diluted in PBS 1 in 5, nine times to produce to form a 10-point dose curve.
# 5 μl of each Fab-KD-Fab or BYbe dilution was added to Nunc™ 96-Well Polypropylene DeepWell™ plates (ThermoFisher). Then 50 μl of blood was added to each well, the plate gently mixed and sealed with a plate seal that allows gas exchange. These cells were then incubated for 5 hrs at 37° C., 5% CO2. Running the assay for a short time period avoids the need to add an anti-coagulant. […]
# Following the incubation with the antibody cocktail, cells were washed twice as outlined above and buffer aspirated to leave the cells in 20 μl residual buffer. […] Cells were analysed live using the Intellicyt iQue Screener PLUS. […]
molecule,measurement,setting,value
4133-6294 BYbe: anti-CD45 BYbe (Fab-scFv): 4133 Fab HC-G4S linker-6294 scFv heavy chain paired with 4133 light chain (antibody) heavy: QEQLVESGGGLVQPEGSLTLTCTASGFSFSGNYYMCWVRQAPGKGLEWIGCLYTGSSGSTYYASWAKGRFTISKTSSTTVTLQMTSLTAADTATYFCARDLGYEIDGYGGLWGQGTLVTVSSGQPKAPSVFPLAPCCGDTPSSTVTLGCLVKGYLPEPVTVTWNSGTLTNGVRTFPSVRQSSGLYSLSSVVSVTSSSQPVTCNVAHPATNTKVDKTVAPSTCSKPGGGGSGGGGSEVQLVESGAELARPGASVKMSCKASGYTFTSYTMHWVKQRPGQCLEWIGYINPSSGYTEYNQKFKDKTTLTADKSSSTAYLQLSSLTSEDSAVYYCARVGDGFYPSWLAYWGQGTLVTVSSGGGGSGGGGSGGGGSGGGGSDIQMTQSPKFLLVSAGDRVTITCKASQSVRNDVAWYQQKPGQSPKLLIFYASKRYTGVPDRFTGSGYGTDFTFTISTVQAEDLAVYFCQQDYSSPTTFGCGTKLEIK light: AQVLTQTPSPVSAVVGGTVSISCQASQSVYNNNNLSWYQQKPGQPPKLLIYDASKLASGVPSRFKGSGSGTQFTLTISGVQCDDAATYYCLGGYYSSGWYFAFGGGTKVVVKRTPVAPTVLIFPPAADQVATGTVTIVCVANKYFPDVTVTWEVDGTTQTTGIENSKTPQNSADCTYNLSSTLTLTSTQYNSHKEYTCKVTQGTTSVVQSFNRGDC,EC50,"[1]; B cells in PBMC, range over both reagents",650 to 1500 pM
same,almost maximal reductions in T cells,"[1]; T cells in PBMC, 24 hrs, stated for both reagents",> 95%
same,EC50,"[1]; T cells in PBMC, range over both reagents and T cell subsets",190 to 520 pM
same,maximum reductions of CD4+ cells,[2],48-54%
same,maximum reductions of total lymphocytes,[2],34-44%
